Source: PubChem BioAssay AID1671195 (Yale University, 2021)
Shown is one part, drawn at random, of about 22,000 reagents tested. In the full data, about 1,510 (6.9%) were called active. 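Active includes knockdowns raising or lowering LDL uptake; positive z-scores mean more uptake, negative mean less.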 Unmarked entries are inactive. Reagents against one gene are numbered here.

Screen: 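Regulators of LDL receptor activity judged by labelled LDL uptake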 (primary screen)
System: human Huh7 hepatoma cells
Reagent: siRNA pool against human genes, 18 nM
Timing: about 2 to 2.5 days of knockdown, then 8 h LDL uptake
Challenge: DiI-labelled LDL at 30 µg/ml for 8 h, in lipoprotein-deficient serum medium
Read-out: 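Fluorescent LDL signal imaged in cells, scaled to the plate median, robust z-score for each replicate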
Reading the numbers: robust z-score: higher = more LDL uptake after knockdown
Active means: 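Active when two or more replicates show a robust z-score above 2 or below -2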

KLHL33
- robust z-score, replicate 1: -1.58
- robust z-score, replicate 2: -1.07
- robust z-score, replicate 3: -0.765

AGAP4
- robust z-score, replicate 1: 0.374
- robust z-score, replicate 2: 0.632
- robust z-score, replicate 3: 0.459

TMPRSS11B
- robust z-score, replicate 1: 1.99
- robust z-score, replicate 2: 1.4
- robust z-score, replicate 3: 1.7

LOC388938 (retired record)
- robust z-score, replicate 1: 0.574
- robust z-score, replicate 2: 0.431
- robust z-score, replicate 3: 0.437

SMC5
- robust z-score, replicate 1: 0.344
- robust z-score, replicate 2: 0.316
- robust z-score, replicate 3: 0.873

APOA2
- robust z-score, replicate 1: 1.86
- robust z-score, replicate 2: 2.69
- robust z-score, replicate 3: 1.25

Continued, starting with the last 2 of the part before.
SMC5
- robust z-score, replicate 1: 0.344
- robust z-score, replicate 2: 0.316
- robust z-score, replicate 3: 0.873

APOA2
- robust z-score, replicate 1: 1.86
- robust z-score, replicate 2: 2.69
- robust z-score, replicate 3: 1.25

GVQW3
- robust z-score, replicate 1: 0.642
- robust z-score, replicate 2: 0.379
- robust z-score, replicate 3: 0.502

SNX7
- robust z-score, replicate 1: 0.336
- robust z-score, replicate 2: 0.312
- robust z-score, replicate 3: 0.746

PAK4
- robust z-score, replicate 1: -0.315
- robust z-score, replicate 2: 0.448
- robust z-score, replicate 3: 0.326

TTC39B
- robust z-score, replicate 1: 0.587
- robust z-score, replicate 2: 0.956
- robust z-score, replicate 3: 1.25

NUMB #1
- robust z-score, replicate 1: 0.214
- robust z-score, replicate 2: 0.73
- robust z-score, replicate 3: 0.246

NUMB #2
- robust z-score, replicate 1: 1.12
- robust z-score, replicate 2: -0.635
- robust z-score, replicate 3: 0.351
